{"source": "PubChem BioAssay AID1224828, NIAID | 2016", "purpose": "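Find genes required for NF-kappaB p65 moving into the nucleus after LPS in mouse macrophages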 (primary screen)", "cells": "mouse RAW264.7 G9 macrophage reporter cells (GFP-p65, Tnf promoter-mCherry)", "reagent": "siRNA pool against mouse genes, 100 nM", "duration": "2 days siRNA transfection, then 40 min LPS before fixation", "treatment": "LPS (Salmonella minnesota R595) at 10 ng/ml", "read-out": "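Imaged p65 nuclear translocation ratio, normalised to the plate median, converted to robust z-scores and averaged across two replicates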", "scale": "p65 translocation robust z-score: higher = more nuclear NF-kappaB p65 after LPS than the plate median; nuclear/cytoplasmic p65 ratio: higher = more nuclear NF-kappaB p65", "call rule": "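Called active when z exceeds 3.3 or falls under -1.56 (median of Tlr4 controls), giving activity score of at least 50; no calls for control wells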", "calls": "active = hit (p65 shift raised or lowered); inactive = no clear change", "note": "The whole screen tested about 17,000 reagents; below is a part drawn at random. In the full data, 762 (4.5%) were called active. 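Active calls include both raised and lowered p65 entry, mostly lowered; wells with fewer than 50 cells lack a z-score.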 The raw values are shown without normalisation."}
{"gene knocked down": "Phkg1", "p65 translocation robust z-score": -0.68, "nuclear/cytoplasmic p65 ratio, rep 1": 1.66, "nuclear/cytoplasmic p65 ratio, rep 2": 1.22, "low cell count flag": "enough cells to score", "activity call": "inactive"}
{"gene knocked down": "Lce1m", "p65 translocation robust z-score": 0.2, "nuclear/cytoplasmic p65 ratio, rep 1": 1.43, "nuclear/cytoplasmic p65 ratio, rep 2": 1.27, "low cell count flag": "enough cells to score", "activity call": "inactive"}
{"gene knocked down": "Or2ag18", "nuclear/cytoplasmic p65 ratio, rep 1": 1.43, "nuclear/cytoplasmic p65 ratio, rep 2": 1.21, "low cell count flag": "fewer than 50 cells per well; well left out of scoring", "activity call": "inactive"}
{"gene knocked down": "Gimap5", "p65 translocation robust z-score": 0.61, "nuclear/cytoplasmic p65 ratio, rep 1": 1.52, "nuclear/cytoplasmic p65 ratio, rep 2": 1.47, "low cell count flag": "enough cells to score", "activity call": "inactive"}
{"gene knocked down": "Klk1b11", "nuclear/cytoplasmic p65 ratio, rep 1": 1.6, "nuclear/cytoplasmic p65 ratio, rep 2": 1.7, "low cell count flag": "fewer than 50 cells per well; well left out of scoring", "activity call": "inactive"}
{"gene knocked down": "Adam30", "p65 translocation robust z-score": -0.12, "nuclear/cytoplasmic p65 ratio, rep 1": 1.58, "nuclear/cytoplasmic p65 ratio, rep 2": 1.62, "low cell count flag": "enough cells to score", "activity call": "inactive"}
{"gene knocked down": "1700020N01Rik", "p65 translocation robust z-score": 0.8, "nuclear/cytoplasmic p65 ratio, rep 1": 1.52, "nuclear/cytoplasmic p65 ratio, rep 2": 1.5, "low cell count flag": "enough cells to score", "activity call": "inactive"}
{"gene knocked down": "Nkiras1", "p65 translocation robust z-score": 1.28, "nuclear/cytoplasmic p65 ratio, rep 1": 1.69, "nuclear/cytoplasmic p65 ratio, rep 2": 1.52, "low cell count flag": "enough cells to score", "activity call": "inactive"}
{"gene knocked down": "Mrrf", "p65 translocation robust z-score": -0.62, "nuclear/cytoplasmic p65 ratio, rep 1": 1.7, "nuclear/cytoplasmic p65 ratio, rep 2": 1.49, "low cell count flag": "enough cells to score", "activity call": "inactive"}
{"gene knocked down": "Kcnn2", "p65 translocation robust z-score": -1.57, "nuclear/cytoplasmic p65 ratio, rep 1": 1.34, "nuclear/cytoplasmic p65 ratio, rep 2": 1.21, "low cell count flag": "enough cells to score", "activity call": "active"}
{"gene knocked down": "Slc25a31", "nuclear/cytoplasmic p65 ratio, rep 1": 1.4, "nuclear/cytoplasmic p65 ratio, rep 2": 2.25, "low cell count flag": "fewer than 50 cells per well; well left out of scoring", "activity call": "inactive"}
{"gene knocked down": "Vsig2", "p65 translocation robust z-score": 0.34, "nuclear/cytoplasmic p65 ratio, rep 1": 1.63, "nuclear/cytoplasmic p65 ratio, rep 2": 1.7, "low cell count flag": "enough cells to score", "activity call": "inactive"}
{"gene knocked down": "Hoxd13", "p65 translocation robust z-score": 0.4, "nuclear/cytoplasmic p65 ratio, rep 1": 1.47, "nuclear/cytoplasmic p65 ratio, rep 2": 1.44, "low cell count flag": "enough cells to score", "activity call": "inactive"}
{"gene knocked down": "Ankrd2", "p65 translocation robust z-score": 0.21, "nuclear/cytoplasmic p65 ratio, rep 1": 1.6, "nuclear/cytoplasmic p65 ratio, rep 2": 1.76, "low cell count flag": "enough cells to score", "activity call": "inactive"}
{"gene knocked down": "Trim8", "p65 translocation robust z-score": -0.7, "nuclear/cytoplasmic p65 ratio, rep 1": 1.43, "nuclear/cytoplasmic p65 ratio, rep 2": 1.39, "low cell count flag": "enough cells to score", "activity call": "inactive"}
{"gene knocked down": "Grm1", "p65 translocation robust z-score": 0.72, "nuclear/cytoplasmic p65 ratio, rep 1": 1.6, "nuclear/cytoplasmic p65 ratio, rep 2": 1.69, "low cell count flag": "enough cells to score", "activity call": "inactive"}
{"gene knocked down": "Ccn4", "p65 translocation robust z-score": 0.47, "nuclear/cytoplasmic p65 ratio, rep 1": 1.63, "nuclear/cytoplasmic p65 ratio, rep 2": 1.62, "low cell count flag": "enough cells to score", "activity call": "inactive"}
{"gene knocked down": "Krt82", "p65 translocation robust z-score": -0.38, "nuclear/cytoplasmic p65 ratio, rep 1": 1.47, "nuclear/cytoplasmic p65 ratio, rep 2": 1.41, "low cell count flag": "enough cells to score", "activity call": "inactive"}
{"gene knocked down": "Grina", "p65 translocation robust z-score": -2.2, "nuclear/cytoplasmic p65 ratio, rep 1": 1.59, "nuclear/cytoplasmic p65 ratio, rep 2": 1.24, "low cell count flag": "enough cells to score", "activity call": "active"}
{"gene knocked down": "Clec4b1", "nuclear/cytoplasmic p65 ratio, rep 1": 1.56, "nuclear/cytoplasmic p65 ratio, rep 2": 1.5, "low cell count flag": "fewer than 50 cells per well; well left out of scoring", "activity call": "inactive"}
{"gene knocked down": "Enpp1", "p65 translocation robust z-score": -1.06, "nuclear/cytoplasmic p65 ratio, rep 1": 1.28, "nuclear/cytoplasmic p65 ratio, rep 2": 1.27, "low cell count flag": "enough cells to score", "activity call": "inactive"}
